Data taken from publication PMC11130243.
These are yes or no findings as the source states them, for the method shown. In cells and extracts the contact can be indirect. Here binding means that the protein was enriched with, or labelled near, the bait; the list need not be complete. For part of these data: Tags and fused reporters may be left off the sequences shown.

Protein sequences, listed by entry. Tags and fused reporters are not part of them.
UniProt P29597: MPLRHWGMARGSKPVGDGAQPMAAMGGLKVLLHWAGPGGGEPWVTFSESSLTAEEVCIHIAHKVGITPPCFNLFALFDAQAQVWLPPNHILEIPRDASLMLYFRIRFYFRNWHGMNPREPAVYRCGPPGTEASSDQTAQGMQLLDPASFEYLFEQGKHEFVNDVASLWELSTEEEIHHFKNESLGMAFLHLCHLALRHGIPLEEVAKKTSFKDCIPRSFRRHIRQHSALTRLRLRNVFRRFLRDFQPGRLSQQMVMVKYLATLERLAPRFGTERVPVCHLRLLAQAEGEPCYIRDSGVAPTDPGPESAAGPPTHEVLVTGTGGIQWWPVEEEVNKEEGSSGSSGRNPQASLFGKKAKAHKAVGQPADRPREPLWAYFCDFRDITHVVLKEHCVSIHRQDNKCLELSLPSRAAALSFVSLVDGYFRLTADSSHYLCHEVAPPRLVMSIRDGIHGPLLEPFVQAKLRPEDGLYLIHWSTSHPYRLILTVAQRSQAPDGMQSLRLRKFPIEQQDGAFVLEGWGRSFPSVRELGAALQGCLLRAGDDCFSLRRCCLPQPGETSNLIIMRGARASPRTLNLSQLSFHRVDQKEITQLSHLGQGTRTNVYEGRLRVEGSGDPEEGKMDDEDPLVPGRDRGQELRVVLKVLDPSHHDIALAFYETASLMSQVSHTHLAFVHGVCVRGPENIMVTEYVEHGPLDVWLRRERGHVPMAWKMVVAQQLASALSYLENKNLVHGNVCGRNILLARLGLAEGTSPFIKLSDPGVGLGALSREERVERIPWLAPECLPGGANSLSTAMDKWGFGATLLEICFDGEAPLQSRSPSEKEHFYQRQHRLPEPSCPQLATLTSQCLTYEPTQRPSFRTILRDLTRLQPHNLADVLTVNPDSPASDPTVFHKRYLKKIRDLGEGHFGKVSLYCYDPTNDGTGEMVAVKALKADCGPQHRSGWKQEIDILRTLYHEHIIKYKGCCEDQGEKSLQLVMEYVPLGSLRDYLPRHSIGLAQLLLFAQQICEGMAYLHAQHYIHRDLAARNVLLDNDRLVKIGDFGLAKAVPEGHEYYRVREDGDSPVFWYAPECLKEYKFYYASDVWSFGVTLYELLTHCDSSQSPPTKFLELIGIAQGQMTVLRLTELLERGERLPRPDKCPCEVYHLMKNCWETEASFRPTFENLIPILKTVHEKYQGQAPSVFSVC
UniProt P23458: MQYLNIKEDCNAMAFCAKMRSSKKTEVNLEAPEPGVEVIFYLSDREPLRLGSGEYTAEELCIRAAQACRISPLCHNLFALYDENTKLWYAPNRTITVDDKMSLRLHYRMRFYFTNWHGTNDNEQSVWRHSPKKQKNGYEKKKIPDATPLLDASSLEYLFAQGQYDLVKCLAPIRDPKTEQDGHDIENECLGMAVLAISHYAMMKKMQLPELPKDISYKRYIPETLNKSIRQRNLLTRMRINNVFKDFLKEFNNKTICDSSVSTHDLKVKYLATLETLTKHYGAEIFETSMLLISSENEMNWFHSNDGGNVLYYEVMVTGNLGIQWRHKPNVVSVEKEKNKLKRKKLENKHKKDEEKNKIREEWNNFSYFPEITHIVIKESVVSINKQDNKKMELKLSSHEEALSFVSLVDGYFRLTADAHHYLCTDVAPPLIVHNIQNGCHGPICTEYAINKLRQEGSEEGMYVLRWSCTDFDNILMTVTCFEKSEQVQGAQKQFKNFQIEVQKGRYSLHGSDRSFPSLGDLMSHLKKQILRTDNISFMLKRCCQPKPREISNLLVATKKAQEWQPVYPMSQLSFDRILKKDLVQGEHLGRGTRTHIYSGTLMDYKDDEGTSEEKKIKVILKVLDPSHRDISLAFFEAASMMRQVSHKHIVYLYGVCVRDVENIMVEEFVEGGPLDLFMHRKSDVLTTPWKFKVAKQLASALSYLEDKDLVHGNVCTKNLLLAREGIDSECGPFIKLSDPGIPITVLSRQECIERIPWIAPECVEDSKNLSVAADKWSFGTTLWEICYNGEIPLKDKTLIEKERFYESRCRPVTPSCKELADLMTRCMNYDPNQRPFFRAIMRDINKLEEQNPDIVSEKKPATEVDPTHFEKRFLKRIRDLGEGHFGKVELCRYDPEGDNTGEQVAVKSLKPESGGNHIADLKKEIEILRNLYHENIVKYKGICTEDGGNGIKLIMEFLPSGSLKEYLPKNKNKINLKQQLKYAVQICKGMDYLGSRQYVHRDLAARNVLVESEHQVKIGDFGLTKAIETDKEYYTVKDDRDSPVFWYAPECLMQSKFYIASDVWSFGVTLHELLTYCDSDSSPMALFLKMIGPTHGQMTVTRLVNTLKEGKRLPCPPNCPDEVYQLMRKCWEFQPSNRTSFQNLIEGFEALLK

T1: TurboID-V5-IRF9 (human) (UniProt Q00978)
T1 sequence: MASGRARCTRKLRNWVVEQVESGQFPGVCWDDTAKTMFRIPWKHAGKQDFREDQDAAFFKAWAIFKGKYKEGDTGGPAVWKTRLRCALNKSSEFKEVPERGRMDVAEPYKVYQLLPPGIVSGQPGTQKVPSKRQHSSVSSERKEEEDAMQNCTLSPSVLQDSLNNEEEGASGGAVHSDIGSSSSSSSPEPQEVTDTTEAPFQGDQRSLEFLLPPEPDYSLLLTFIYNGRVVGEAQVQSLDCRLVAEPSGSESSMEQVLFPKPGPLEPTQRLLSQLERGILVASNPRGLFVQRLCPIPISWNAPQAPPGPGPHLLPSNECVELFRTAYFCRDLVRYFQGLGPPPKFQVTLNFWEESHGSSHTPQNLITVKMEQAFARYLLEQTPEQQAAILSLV


Key:
Test in all cases: proximity labelling; TurboID-tagged bait stably expressed in MRC-5/hTERT; serum-starved 20 h; 1000 IU/mL IFN-α2 for 0, 20, 60 or 120 min; 500 μM biotin for the last 15 min; RIPA lysis; streptavidin magnetic beads; label-free mass spectrometry, SAINTexpress against the similarly localized TurboID-GFP control (FC ≥ 4 stringent or FC ≥ 2 relaxed)
TurboID-V5-IRF9 (human) = target: T1, TurboID-V5-IRF9 (human)
[1] = target: TurboID-V5-STAT2 (human), P52630; conditions: remark: other sources report otherwise
[2] = target: TurboID-V5-TYK2 (stable in MRC-5/hTERT) (human) (UniProt P29597)
[3] = target: TurboID-V5-JAK1 (stable in MRC-5/hTERT) (human) (UniProt P23458)

Binder	binding [1]	binding [2]	further results
GIGYF2 (protein, UniProt Q6Y7W6 1-1299) MAAETQTLNFGPEWLRALSSGGSITSPPLSPALPKYKLADYRYGREEMLALFLKDNKIPSDLLDKEFLPILQEEPLPPLALVPFTEEEQRNFSMSVNSAAVLRLTGRGGGGTVVGAPRGRSSSRGRGRGRGECGFYQRSFDEVEGVFGRGGGREMHRSQSWEERGDRRFEKPGRKDVGRPNFEEGGPTSVGRKHEFIRSESENWRIFREEQNGEDEDGGWRLAGSRRDGERWRPHSPDGPRSAGWREHMERRRRFEFDFRDRDDERGYRRVRSGSGSIDDDRDSLPEWCLEDAEEEMGTFDSSGAFLSLKKVQKEPIPEEQEMDFRPVDEGEECSDSEGSHNEEAKEPDKTNKKEGEKTDRVGVEASEETPQTSSSSARPGTPSDHQSQEASQFERKDEPKTEQTEKAEEETRMENSLPAKVPSRGDEMVADVQQPLSQIPSDTASPLLILPPPVPNPSPTLRPVETPVVGAPGMGSVSTEPDDEEGLKHLEQQAEKMVAYLQDSALDDERLASKLQEHRAKGVSIPLMHEAMQKWYYKDPQGEIQGPFNNQEMAEWFQAGYFTMSLLVKRACDESFQPLGDIMKMWGRVPFSPGPAPPPHMGELDQERLTRQQELTALYQMQHLQYQQFLIQQQYAQVLAQQQKAALSSQQQQQLALLLQQFQTLKMRISDQNIIPSVTRSVSVPDTGSIWELQPTASQPTVWEGGSVWDLPLDTTTPGPALEQLQQLEKAKAAKLEQERREAEMRAKREEEERKRQEELRRQQEEILRRQQEEERKRREEEELARRKQEEALRRQREQEIALRRQREEEERQQQEEALRRLEERRREEEERRKQEELLRKQEEEAAKWAREEEEAQRRLEENRLRMEEEAARLRHEEEERKRKELEVQRQKELMRQRQQQQEALRRLQQQQQQQQLAQMKLPSSSTWGQQSNTTACQSQATLSLAEIQKLEEERERQLREEQRRQQRELMKALQQQQQQQQQKLSGWGNVSKPSGTTKSLLEIQQEEARQMQKQQQQQQQHQQPNRARNNTHSNLHTSIGNSVWGSINTGPPNQWASDLVSSIWSNADTKNSNMGFWDDAVKEVGPRNSTNKNKNNASLSKSVGVSNRQNKKVEEEEKLLKLFQGVNKAQDGFTQWCEQMLHALNTANNLDVPTFVSFLKEVESPYEVHDYIRAYLGDTSEAKEFAKQFLERRAKQKANQQRQQQQLPQQQQQQPPQQPPQQPQQQDSVWGMNHSTLHSVFQTNQSNNQQSNFEAVQSGKKKKKQKMVRADPSLLGFSVNASSERLNMGEIETLDDY			binding (TurboID-V5-IRF9 (human)): binds
STAT6, P42226 1-847 (protein) MSLWGLVSKMPPEKVQRLYVDFPQHLRHLLGDWLESQPWEFLVGSDAFCCNLASALLSDTVQHLQASVGEQGEGSTILQHISTLESIYQRDPLKLVATFRQILQGEKKAVMEQFRHLPMPFHWKQEELKFKTGLRRLQHRVGEIHLLREALQKGAEAGQVSLHSLIETPANGTGPSEALAMLLQETTGELEAAKALVLKRIQIWKRQQQLAGNGAPFEESLAPLQERCESLVDIYSQLQQEVGAAGGELEPKTRASLTGRLDEVLRTLVTSCFLVEKQPPQVLKTQTKFQAGVRFLLGLRFLGAPAKPPLVRADMVTEKQARELSVPQGPGAGAESTGEIINNTVPLENSIPGNCCSALFKNLLLKKIKRCERKGTESVTEEKCAVLFSASFTLGPGKLPIQLQALSLPLVVIVHGNQDNNAKATILWDNAFSEMDRVPFVVAERVPWEKMCETLNLKFMAEVGTNRGLLPEHFLFLAQKIFNDNSLSMEAFQHRSVSWSQFNKEILLGRGFTFWQWFDGVLDLTKRCLRSYWSDRLIIGFISKQYVTSLLLNEPDGTFLLRFSDSEIGGITIAHVIRGQDGSPQIENIQPFSAKDLSIRSLGDRIRDLAQLKNLYPKKPKDEAFRSHYKPEQMGKDGRGYVPATIKMTVERDQPLPTPELQMPTMVPSYDLGMAPDSSMSMQLGPDMVPQVYPPHSHSIPPYQGLSPEESVNVLSAFQEPHLQMPPSLGQMSLPFDQPHPQGLLPCQPQEHAVSSPDPLLCSDVTMVEDSCLSQPVTAFPQGTWIGEDIFPPLLPPTEQDLTKLLLEGQGESGGGSLGAQPLLQPSHYGQSGISMSHMDLRANPSW	binds		
TurboID-V5-IRF9, Q00978 1-393 (protein) MASGRARCTRKLRNWVVEQVESGQFPGVCWDDTAKTMFRIPWKHAGKQDFREDQDAAFFKAWAIFKGKYKEGDTGGPAVWKTRLRCALNKSSEFKEVPERGRMDVAEPYKVYQLLPPGIVSGQPGTQKVPSKRQHSSVSSERKEEEDAMQNCTLSPSVLQDSLNNEEEGASGGAVHSDIGSSSSSSSPEPQEVTDTTEAPFQGDQRSLEFLLPPEPDYSLLLTFIYNGRVVGEAQVQSLDCRLVAEPSGSESSMEQVLFPKPGPLEPTQRLLSQLERGILVASNPRGLFVQRLCPIPISWNAPQAPPGPGPHLLPSNECVELFRTAYFCRDLVRYFQGLGPPPKFQVTLNFWEESHGSSHTPQNLITVKMEQAFARYLLEQTPEQQAAILSLV	binds		
PJA2 (endogenous, MRC-5/hTERT) (enzyme, UniProt O43164 1-708) MSQYTEKEPAAMDQESGKAVWPKPAGGYQTITGRRYGRRHAYVSFKPCMTRHERSLGRAGDDYEVLELDDVPKENSSGSSPLDQVDSSLPSEPIFEKSETEIPTCGSALNQTTESSQSFVAVHHSEEGRDTLGSSTNLHNHSEGEYIPGACSASSVQNGIALVHTDSYDPDGKHGEDNDHLQLSAEVVEGSRYQESLGNTVFELENREAEAYTGLSPPVPSFNCEVRDEFEELDSVPLVKSSAGDTEFVHQNSQEIQRSSQDEMVSTKQQNNTSQERQTEHSPEDAACGPGHICSEQNTNDREKNHGSSPEQVVRPKVRKLISSSQVDQETGFNRHEAKQRSVQRWREALEVEESGSDDLLIKCEEYDGEHDCMFLDPPYSRVITQRETENNQMTSESGATAGRQEVDNTFWNGCGDYYQLYDKDEDSSECSDGEWSASLPHRFSGTEKDQSSSDESWETLPGKDENEPELQSDSSGPEEENQELSLQEGEQTSLEEGEIPWLQYNEVNESSSDEGNEPANEFAQPAFMLDGNNNLEDDSSVSEDLDVDWSLFDGFADGLGVAEAISYVDPQFLTYMALEERLAQAMETALAHLESLAVDVEVANPPASKESIDGLPETLVLEDHTAIGQEQCCPICCSEYIKDDIATELPCHHFFHKPCVSIWLQKSGTCPVCRRHFPPAVIEASAAPSSEPDPDAPPSNDSIAEAP		binds	
OSMR (receptor, UniProt Q99650 28-979) ERLPLTPVSLKVSTNSTRQSLHLQWTVHNLPYHQELKMVFQIQISRIETSNVIWVGNYSTTVKWNQVLHWSWESELPLECATHFVRIKSLVDDAKFPEPNFWSNWSSWEEVSVQDSTGQDILFVFPKDKLVEEGTNVTICYVSRNIQNNVSCYLEGKQIHGEQLDPHVTAFNLNSVPFIRNKGTNIYCEASQGNVSEGMKGIVLFVSKVLEEPKDFSCETEDFKTLHCTWDPGTDTALGWSKQPSQSYTLFESFSGEKKLCTHKNWCNWQITQDSQETYNFTLIAENYLRKRSVNILFNLTHRVYLMNPFSVNFENVNATNAIMTWKVHSIRNNFTYLCQIELHGEGKMMQYNVSIKVNGEYFLSELEPATEYMARVRCADASHFWKWSEWSGQNFTTLEAAPSEAPDVWRIVSLEPGNHTVTLFWKPLSKLHANGKILFYNVVVENLDKPSSSELHSIPAPANSTKLILDRCSYQICVIANNSVGASPASVIVISADPENKEVEEERIAGTEGGFSLSWKPQPGDVIGYVVDWCDHTQDVLGDFQWKNVGPNTTSTVISTDAFRPGVRYDFRIYGLSTKRIACLLEKKTGYSQELAPSDNPHVLVDTLTSHSFTLSWKDYSTESQPGFIQGYHVYLKSKARQCHPRFEKAVLSDGSECCKYKIDNPEEKALIVDNLKPESFYEFFITPFTSAGEGPSATFTKVTTPDEHSSMLIHILLPMVFCVLLIMVMCYLKSQWIKETCYPDIPDPYKSSILSLIKFKENPHLIIMNVSDCIPDAIEVVSKPEGTKIQFLGTRKSLTETELTKPNYLYLLPTEKNHSGPGPCICFENLTYNQAASDSGSCGHVPVSPKAPSMLGLMTSPENVLKALEKNYMNSLGEIPAGETSLNYVSQLASPMFGDKDSLPTNPVEAPHCSEYKMQMAVSLRLALPPPTENSSLSSITLLDPGEHYC		binds	binding [3]: binds
